These are yes or no findings as the source states them, for the method shown. Some entries that bind do so weakly or less than the wild type. For part of these data: Sequences can lack the tags named with a protein. Values belong to the binder of their own block, whether it stands above or below them.
What was measured:
[1] = biological target: T1, recombinant C35 protein (human) (UniProt Q9BRT3); experiment: ELISA and Western blot
T1 sequence: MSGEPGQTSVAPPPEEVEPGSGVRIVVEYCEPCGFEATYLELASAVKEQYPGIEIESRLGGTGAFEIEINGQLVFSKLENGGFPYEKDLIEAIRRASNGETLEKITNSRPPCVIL

[2] = biological target: T2, 6× His-tagged recombinant human C35 (rhC35) (human) (UniProt Q9BRT3); experiment: Western blot of Lys-C digested rhC35, 1 µg/ml antibody
T2 sequence: T1 sequence

binding [1]: binds
B1: 1B3 murine anti-C35 monoclonal antibody (antibody, V domains shown)
VH: EVQLQESGPSLVKPSQTLSLTCSVTGDSITSGYWNWIRKFPGNKLEYVGYISYSGGTYYNPSLKSRISITRDTSKNHYYLQLNSVTTEDTATYYCARGAYYGGAFFPYFDVWGAGTTVTVSS
VL: DVQITQSPSFLAASPGETITINCRASKYISKHLVWYQEKPGETKKLLIYSGSTLQSGLPSRFSGSGSGTDFTLTISSLEPEDFAMYYCQQHNEYPLTFGAGTKLELK

binding [1]: binds | binding [2]: binds
B2: 1F2 murine anti-C35 monoclonal antibody (antibody, V domains shown)
VH: DVQLQESGPGLVKPSQSLSLTCSVTGYSITSGYFWNWIRQFPGNKLEWMGYISYDGSNNSNPSLKNRISFTRDTSKNQFFLKFNSVTTDDSAAYYCTRGTTGFAYWGQGTLVTVSA
VL: QIVLTQSPAIMSASPGEKVTISCSASSSVSYMNWYQQKPGSSPKPWIYHTSNLASGVPARFSGSGSGTSYSLTISSMEAEDAATYYCQQYHSYPPTFGGGTKLEIK

Reference: patent publication US20050158323A1, “Methods of killing tumor cells by targeting internal antigens exposed on apoptotic tumor cells” (Vaccinex, Inc., priority 2003, published 2005)
